The values that follow come from paper PMC11294625, “The kinesin-3 KIF1C undergoes liquid-liquid phase separation for accumulation of specific transcripts at the cell periphery”.

The exact form of at least one protein or probe is not confirmed. The comparison behind a weaker result is the experiment's own reference, which may not be listed here. At least one verdict was read from the data and is not stated in words by the source. Protein sequences can lack the tags named with them.

The data set concerns the target T1, KIF1C(CC4+IDR)-mNG (Homo sapiens) (UniProt O43896).
T1 sequence (looked up): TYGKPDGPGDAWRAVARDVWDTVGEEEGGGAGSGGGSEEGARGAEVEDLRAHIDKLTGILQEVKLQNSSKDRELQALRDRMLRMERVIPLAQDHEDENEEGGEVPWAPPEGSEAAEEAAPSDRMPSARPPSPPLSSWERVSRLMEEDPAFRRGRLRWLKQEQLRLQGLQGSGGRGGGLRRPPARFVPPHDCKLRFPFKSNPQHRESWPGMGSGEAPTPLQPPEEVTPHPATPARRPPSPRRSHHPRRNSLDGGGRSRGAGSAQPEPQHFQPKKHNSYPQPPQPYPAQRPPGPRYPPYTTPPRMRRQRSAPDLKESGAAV
Put plainly: in vitro condensate recruitment (fluorescence microscopy). To be noted: 15-60 nM RNA, 100 nM protein, 100 mM NaCl, only GU-rich selectively enriched; methylation at each nucleotide (printed mA, probably 2'-O-methyl); 100 nM KIF1C(CC4+IDR)-mNG in 100 mM NaCl buffer, no crowding agent; recombinant protein; residues 785-1103; protein details: C-terminal mNeonGreen, His-SUMO removed by TEV; label: 5'-Cy5.

With “AAAAAAAAAAAAA [polyA RNA oligo, Cy5-A13]”, the binding result is given as “binds more weakly”.
